Source: article doi:10.1101/2020.11.05.369959
No constants are given. Whether binding was seen depends on the method and setting. In cells and extracts the contact can be indirect. These calls come from enrichment with a bait or labelling near it, and not all partners need be listed.

Chains of the proteins cited; added tags and fusions are not shown.
UniProt Q9C0K0: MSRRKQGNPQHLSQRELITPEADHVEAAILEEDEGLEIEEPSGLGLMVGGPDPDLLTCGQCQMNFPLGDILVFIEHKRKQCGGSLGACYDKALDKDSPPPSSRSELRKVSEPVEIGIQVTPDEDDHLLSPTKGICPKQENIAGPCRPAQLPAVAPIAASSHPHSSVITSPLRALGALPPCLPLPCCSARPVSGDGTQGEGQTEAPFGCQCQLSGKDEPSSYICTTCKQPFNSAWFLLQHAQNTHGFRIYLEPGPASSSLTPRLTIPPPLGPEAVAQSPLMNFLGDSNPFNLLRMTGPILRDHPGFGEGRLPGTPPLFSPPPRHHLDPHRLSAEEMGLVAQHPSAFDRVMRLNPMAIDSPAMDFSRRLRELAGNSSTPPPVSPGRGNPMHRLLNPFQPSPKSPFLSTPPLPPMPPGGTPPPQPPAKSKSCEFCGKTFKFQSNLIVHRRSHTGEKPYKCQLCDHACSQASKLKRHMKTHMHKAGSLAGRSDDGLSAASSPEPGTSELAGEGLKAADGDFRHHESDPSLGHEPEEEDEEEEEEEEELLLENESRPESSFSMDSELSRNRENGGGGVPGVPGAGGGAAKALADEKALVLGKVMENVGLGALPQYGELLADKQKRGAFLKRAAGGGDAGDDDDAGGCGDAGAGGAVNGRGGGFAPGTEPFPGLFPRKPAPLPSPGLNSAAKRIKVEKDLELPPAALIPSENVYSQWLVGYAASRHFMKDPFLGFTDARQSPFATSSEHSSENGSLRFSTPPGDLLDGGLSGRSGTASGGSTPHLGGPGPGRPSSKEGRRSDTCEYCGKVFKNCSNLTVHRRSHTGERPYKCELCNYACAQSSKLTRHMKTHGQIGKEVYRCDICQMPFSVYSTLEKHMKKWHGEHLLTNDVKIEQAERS

B1: CDC45 (protein, UniProt O75419 1-566)
chain: MFVSDFRKEFYEVVQSQRVLLFVASDVDALCACKILQALFQCDHVQYTLVPVSGWQELETAFLEHKEQFHYFILINCGANVDLLDILQPDEDTIFFVCDTHRPVNVVNVYNDTQIKLLIKQDDDLEVPAYEDIFRDEEEDEEHSGNDSDGSEPSEKRTRLEEEIVEQTMRRRQRREWEARRRDILFDYEQYEYHGTSSAMVMFELAWMLSKDLNDMLWWAIVGLTDQWVQDKITQMKYVTDVGVLQRHVSRHNHRNEDEENTLSVDCTRISFEYDLRLVLYQHWSLHDSLCNTSYTAARFKLWSVHGQKRLQEFLADMGLPLKQVKQKFQAMDISLKENLREMIEESANKFGMKDMRVQTFSIHFGFKHKFLASDVVFATMSLMESPEKDGSGTDHFIQALDSLSRSNLDKLYHGLELAKKQLRATQQTIASCLCTNLVISQGPFLYCSLMEGTPDVMLFSRPASLSLLSKHLLKSFVCSTKNRRCKLLPLVMAAPLSMEHGTVTVVGIPPETDSSDRKNFFGRAFEKAAESTSSRMLHNHFDLSVIELKAEDRSKFLDALISLLS
B2: Drosha (protein, UniProt Q9NRR4 1-1374)
chain: MMQGNTCHRMSFHPGRGCPRGRGGHGARPSAPSFRPQNLRLLHPQQPPVQYQYEPPSAPSTTFSNSPAPNFLPPRPDFVPFPPPMPPSAQGPLPPCPIRPPFPNHQMRHPFPVPPCFPPMPPPMPCPNNPPVPGAPPGQGTFPFMMPPPSMPHPPPPPVMPQQVNYQYPPGYSHHNFPPPSFNSFQNNPSSFLPSANNSSSPHFRHLPPYPLPKAPSERRSPERLKHYDDHRHRDHSHGRGERHRSLDRRERGRSPDRRRQDSRYRSDYDRGRTPSRHRSYERSRERERERHRHRDNRRSPSLERSYKKEYKRSGRSYGLSVVPEPAGCTPELPGEIIKNTDSWAPPLEIVNHRSPSREKKRARWEEEKDRWSDNQSSGKDKNYTSIKEKEPEETMPDKNEEEEEELLKPVWIRCTHSENYYSSDPMDQVGDSTVVGTSRLRDLYDKFEEELGSRQEKAKAARPPWEPPKTKLDEDLESSSESECESDEDSTCSSSSDSEVFDVIAEIKRKKAHPDRLHDELWYNDPGQMNDGPLCKCSAKARRTGIRHSIYPGEEAIKPCRPMTNNAGRLFHYRITVSPPTNFLTDRPTVIEYDDHEYIFEGFSMFAHAPLTNIPLCKVIRFNIDYTIHFIEEMMPENFCVKGLELFSLFLFRDILELYDWNLKGPLFEDSPPCCPRFHFMPRFVRFLPDGGKEVLSMHQILLYLLRCSKALVPEEEIANMLQWEELEWQKYAEECKGMIVTNPGTKPSSVRIDQLDREQFNPDVITFPIIVHFGIRPAQLSYAGDPQYQKLWKSYVKLRHLLANSPKVKQTDKQKLAQREEALQKIRQKNTMRREVTVELSSQGFWKTGIRSDVCQHAMMLPVLTHHIRYHQCLMHLDKLIGYTFQDRCLLQLAMTHPSHHLNFGMNPDHARNSLSNCGIRQPKYGDRKVHHMHMRKKGINTLINIMSRLGQDDPTPSRINHNERLEFLGDAVVEFLTSVHLYYLFPSLEEGGLATYRTAIVQNQHLAMLAKKLELDRFMLYAHGPDLCRESDLRHAMANCFEALIGAVYLEGSLEEAKQLFGRLLFNDPDLREVWLNYPLHPLQLQEPNTDRQLIETSPVLQKLTEFEEAIGVIFTHVRLLARAFTLRTVGFNHLTLGHNQRMEFLGDSIMQLVATEYLFIHFPDHHEGHLTLLRSSLVNNRTQAKVAEELGMQEYAITNDKTKRPVALRTKTLADLLESFIAALYIDKDLEYVHTFMNVCFFPRLKEFILNQDWNDPKSQLQQCCLTLRTEGKEPDIPLYKTLQTVGPSHARTYTVAVYFKGERIGCGKGPSIQQAEMGAAMDALEKYNFPQMAHQKRFIERKYRQELKEMRWEREHQEREPDETEDIKK
B3: SMG7 (protein, UniProt Q92540 1-1137)
chain: MSLQSAQYLRQAEVLKADMTDSKLGPAEVWTSRQALQDLYQKMLVTDLEYALDKKVEQDLWNHAFKNQITTLQGQAKNRANPNRSEVQANLSLFLEAASGFYTQLLQELCTVFNVDLPCRVKSSQLGIISNKQTHTSAIVKPQSSSCSYICQHCLVHLGDIARYRNQTSQAESYYRHAAQLVPSNGQPYNQLAILASSKGDHLTTIFYYCRSIAVKFPFPAASTNLQKALSKALESRDEVKTKWGVSDFIKAFIKFHGHVYLSKSLEKLSPLREKLEEQFKRLLFQKAFNSQQLVHVTVINLFQLHHLRDFSNETEQHTYSQDEQLCWTQLLALFMSFLGILCKCPLQNESQEESYNAYPLPAVKVSMDWLRLRPRVFQEAVVDERQYIWPWLISLLNSFHPHEEDLSSISATPLPEEFELQGFLALRPSFRNLDFSKGHQGITGDKEGQQRRIRQQRLISIGKWIADNQPRLIQCENEVGKLLFITEIPELILEDPSEAKENLILQETSVIESLAADGSPGLKSVLSTSRNLSNNCDTGEKPVVTFKENIKTREVNRDQGRSFPPKEVRRDYSKGITVTKNDGKKDNNKRKTETKKCTLEKLQETGKQNVAVQVKSQTELRKTPVSEARKTPVTQTPTQASNSQFIPIHHPGAFPPLPSRPGFPPPTYVIPPPVAFSMGSGYTFPAGVSVPGTFLQPTAHSPAGNQVQAGKQSHIPYSQQRPSGPGPMNQGPQQSQPPSQQPLTSLPAQPTAQSTSQLQVQALTQQQQSPTKAVPALGKSPPHHSGFQQYQQADASKQLWNPPQVQGPLGKIMPVKQPYYLQTQDPIKLFEPSLQPPVMQQQPLEKKMKPFPMEPYNHNPSEVKVPEFYWDSSYSMADNRSVMAQQANIDRRGKRSPGVFRPEQDPVPRMPFEKSLLEKPSELMSHSSSFLSLTGFSLNQERYPNNSMFNEVYGKNLTSSSKAELSPSMAPQETSLYSLFEGTPWSPSLPASSDHSTPASQSPHSSNPSSLPSSPPTHNHNSVPFSNFGPIGTPDNRDRRTADRWKTDKPAMGGFGIDYLSATSSSESSWHQASTPSGTWTGHGPSMEDSSAVLMESLKSIWSSSMMHPGPSALEQLLMQQKQKQQRGQGTMNPPH
B4: UPF1 (protein, UniProt Q92900 1-1129)
chain: MSVEAYGPSSQTLTFLDTEEAELLGADTQGSEFEFTDFTLPSQTQTPPGGPGGPGGGGAGGPGGAGAGAAAGQLDAQVGPEGILQNGAVDDSVAKTSQLLAELNFEEDEEDTYYTKDLPIHACSYCGIHDPACVVYCNTSKKWFCNGRGNTSGSHIVNHLVRAKCKEVTLHKDGPLGETVLECYNCGCRNVFLLGFIPAKADSVVVLLCRQPCASQSSLKDINWDSSQWQPLIQDRCFLSWLVKIPSEQEQLRARQITAQQINKLEELWKENPSATLEDLEKPGVDEEPQHVLLRYEDAYQYQNIFGPLVKLEADYDKKLKESQTQDNITVRWDLGLNKKRIAYFTLPKTDSGNEDLVIIWLRDMRLMQGDEICLRYKGDLAPLWKGIGHVIKVPDNYGDEIAIELRSSVGAPVEVTHNFQVDFVWKSTSFDRMQSALKTFAVDETSVSGYIYHKLLGHEVEDVIIKCQLPKRFTAQGLPDLNHSQVYAVKTVLQRPLSLIQGPPGTGKTVTSATIVYHLARQGNGPVLVCAPSNIAVDQLTEKIHQTGLKVVRLCAKSREAIDSPVSFLALHNQIRNMDSMPELQKLQQLKDETGELSSADEKRYRALKRTAERELLMNADVICCTCVGAGDPRLAKMQFRSILIDESTQATEPECMVPVVLGAKQLILVGDHCQLGPVVMCKKAAKAGLSQSLFERLVVLGIRPIRLQVQYRMHPALSAFPSNIFYEGSLQNGVTAADRVKKGFDFQWPQPDKPMFFYVTQGQEEIASSGTSYLNRTEAANVEKITTKLLKAGAKPDQIGIITPYEGQRSYLVQYMQFSGSLHTKLYQEVEIASVDAFQGREKDFIILSCVRANEHQGIGFLNDPRRLNVALTRARYGVIIVGNPKALSKQPLWNHLLNYYKEQKVLVEGPLNNLRESLMQFSKPRKLVNTINPGARFMTTAMYDAREAIIPGSVYDRSSQGRPSSMYFQTHDQIGMISAGPSHVAAMNIPIPFNLVMPPMPPPGYFGQANGPAAGRGTPKGKTGRGGRQKNRFGLPGPSQTNLPNSQASQDVASQPFSQGALTQGYISMSQPSQMSQPGLSQPELSQDSYLGDEFKSQIDVALSQDSTYQGERAYQHGGVTGLSQY

target: Flag-BCL11b (B-cell lymphoma/leukemia 11B) (UniProt Q9C0K0); assay: affinity purification with mass spectrometry

With B1 as the binder, how does the binding read?
Its binding is “binds”.

How did the binding turn out when B2 was run?
Its binding is “binds”.

How did the binding turn out when B3 was run?
Its binding is “binds”.

With B4 as the binder, how does the binding read?
Its binding is “binds”.
